These are yes or no findings as the source states them, for the method shown. Tags and fused reporters may be left off the sequences shown.
Target: NET4B with C-terminal deletion including the IRQ domain, yeast two-hybrid bait (Arabidopsis thaliana)
Test: two-hybrid; one-on-one mating; pGBKT7 baits in AH109, pGADT7 preys in Y187; growth on SD -WLH + 2.5 mM 3AT at 30 °C for 5-7 days; empty vectors as controls

binding: no binding
B1: CA-RABG3a (constitutive active, Q67L), yeast two-hybrid fusion (protein, UniProt Q948K8 1-206)
chain: MATRRRTLLKVIVLGDSGVGKTSLMNQYVHKKFSMQYKATIGADFVTKELQIGEKLVTLQIWDTAGLERFQSLGAAFYRGADCCALVYDVNVLRSFDNLETWHEEFLKQASPSDPKTFPFIVLGNKIDVDGGSSRVVSDKKAADWCASNGNIPYFETSAKDDFNVDEAFLTIAKTALANEHEQDIYFQGIPDAVTENEPKGGGCAC
